The results in this text go back to article PMC7949109, “Trans-2-enoyl-CoA reductase limits Ca^2+ accumulation in the endoplasmic reticulum by inhibiting the Ca^2+ pump SERCA2b” (The Journal of Biological Chemistry, 2021).

Chains of the proteins cited; added tags and fusions are not shown.
UniProt P78527: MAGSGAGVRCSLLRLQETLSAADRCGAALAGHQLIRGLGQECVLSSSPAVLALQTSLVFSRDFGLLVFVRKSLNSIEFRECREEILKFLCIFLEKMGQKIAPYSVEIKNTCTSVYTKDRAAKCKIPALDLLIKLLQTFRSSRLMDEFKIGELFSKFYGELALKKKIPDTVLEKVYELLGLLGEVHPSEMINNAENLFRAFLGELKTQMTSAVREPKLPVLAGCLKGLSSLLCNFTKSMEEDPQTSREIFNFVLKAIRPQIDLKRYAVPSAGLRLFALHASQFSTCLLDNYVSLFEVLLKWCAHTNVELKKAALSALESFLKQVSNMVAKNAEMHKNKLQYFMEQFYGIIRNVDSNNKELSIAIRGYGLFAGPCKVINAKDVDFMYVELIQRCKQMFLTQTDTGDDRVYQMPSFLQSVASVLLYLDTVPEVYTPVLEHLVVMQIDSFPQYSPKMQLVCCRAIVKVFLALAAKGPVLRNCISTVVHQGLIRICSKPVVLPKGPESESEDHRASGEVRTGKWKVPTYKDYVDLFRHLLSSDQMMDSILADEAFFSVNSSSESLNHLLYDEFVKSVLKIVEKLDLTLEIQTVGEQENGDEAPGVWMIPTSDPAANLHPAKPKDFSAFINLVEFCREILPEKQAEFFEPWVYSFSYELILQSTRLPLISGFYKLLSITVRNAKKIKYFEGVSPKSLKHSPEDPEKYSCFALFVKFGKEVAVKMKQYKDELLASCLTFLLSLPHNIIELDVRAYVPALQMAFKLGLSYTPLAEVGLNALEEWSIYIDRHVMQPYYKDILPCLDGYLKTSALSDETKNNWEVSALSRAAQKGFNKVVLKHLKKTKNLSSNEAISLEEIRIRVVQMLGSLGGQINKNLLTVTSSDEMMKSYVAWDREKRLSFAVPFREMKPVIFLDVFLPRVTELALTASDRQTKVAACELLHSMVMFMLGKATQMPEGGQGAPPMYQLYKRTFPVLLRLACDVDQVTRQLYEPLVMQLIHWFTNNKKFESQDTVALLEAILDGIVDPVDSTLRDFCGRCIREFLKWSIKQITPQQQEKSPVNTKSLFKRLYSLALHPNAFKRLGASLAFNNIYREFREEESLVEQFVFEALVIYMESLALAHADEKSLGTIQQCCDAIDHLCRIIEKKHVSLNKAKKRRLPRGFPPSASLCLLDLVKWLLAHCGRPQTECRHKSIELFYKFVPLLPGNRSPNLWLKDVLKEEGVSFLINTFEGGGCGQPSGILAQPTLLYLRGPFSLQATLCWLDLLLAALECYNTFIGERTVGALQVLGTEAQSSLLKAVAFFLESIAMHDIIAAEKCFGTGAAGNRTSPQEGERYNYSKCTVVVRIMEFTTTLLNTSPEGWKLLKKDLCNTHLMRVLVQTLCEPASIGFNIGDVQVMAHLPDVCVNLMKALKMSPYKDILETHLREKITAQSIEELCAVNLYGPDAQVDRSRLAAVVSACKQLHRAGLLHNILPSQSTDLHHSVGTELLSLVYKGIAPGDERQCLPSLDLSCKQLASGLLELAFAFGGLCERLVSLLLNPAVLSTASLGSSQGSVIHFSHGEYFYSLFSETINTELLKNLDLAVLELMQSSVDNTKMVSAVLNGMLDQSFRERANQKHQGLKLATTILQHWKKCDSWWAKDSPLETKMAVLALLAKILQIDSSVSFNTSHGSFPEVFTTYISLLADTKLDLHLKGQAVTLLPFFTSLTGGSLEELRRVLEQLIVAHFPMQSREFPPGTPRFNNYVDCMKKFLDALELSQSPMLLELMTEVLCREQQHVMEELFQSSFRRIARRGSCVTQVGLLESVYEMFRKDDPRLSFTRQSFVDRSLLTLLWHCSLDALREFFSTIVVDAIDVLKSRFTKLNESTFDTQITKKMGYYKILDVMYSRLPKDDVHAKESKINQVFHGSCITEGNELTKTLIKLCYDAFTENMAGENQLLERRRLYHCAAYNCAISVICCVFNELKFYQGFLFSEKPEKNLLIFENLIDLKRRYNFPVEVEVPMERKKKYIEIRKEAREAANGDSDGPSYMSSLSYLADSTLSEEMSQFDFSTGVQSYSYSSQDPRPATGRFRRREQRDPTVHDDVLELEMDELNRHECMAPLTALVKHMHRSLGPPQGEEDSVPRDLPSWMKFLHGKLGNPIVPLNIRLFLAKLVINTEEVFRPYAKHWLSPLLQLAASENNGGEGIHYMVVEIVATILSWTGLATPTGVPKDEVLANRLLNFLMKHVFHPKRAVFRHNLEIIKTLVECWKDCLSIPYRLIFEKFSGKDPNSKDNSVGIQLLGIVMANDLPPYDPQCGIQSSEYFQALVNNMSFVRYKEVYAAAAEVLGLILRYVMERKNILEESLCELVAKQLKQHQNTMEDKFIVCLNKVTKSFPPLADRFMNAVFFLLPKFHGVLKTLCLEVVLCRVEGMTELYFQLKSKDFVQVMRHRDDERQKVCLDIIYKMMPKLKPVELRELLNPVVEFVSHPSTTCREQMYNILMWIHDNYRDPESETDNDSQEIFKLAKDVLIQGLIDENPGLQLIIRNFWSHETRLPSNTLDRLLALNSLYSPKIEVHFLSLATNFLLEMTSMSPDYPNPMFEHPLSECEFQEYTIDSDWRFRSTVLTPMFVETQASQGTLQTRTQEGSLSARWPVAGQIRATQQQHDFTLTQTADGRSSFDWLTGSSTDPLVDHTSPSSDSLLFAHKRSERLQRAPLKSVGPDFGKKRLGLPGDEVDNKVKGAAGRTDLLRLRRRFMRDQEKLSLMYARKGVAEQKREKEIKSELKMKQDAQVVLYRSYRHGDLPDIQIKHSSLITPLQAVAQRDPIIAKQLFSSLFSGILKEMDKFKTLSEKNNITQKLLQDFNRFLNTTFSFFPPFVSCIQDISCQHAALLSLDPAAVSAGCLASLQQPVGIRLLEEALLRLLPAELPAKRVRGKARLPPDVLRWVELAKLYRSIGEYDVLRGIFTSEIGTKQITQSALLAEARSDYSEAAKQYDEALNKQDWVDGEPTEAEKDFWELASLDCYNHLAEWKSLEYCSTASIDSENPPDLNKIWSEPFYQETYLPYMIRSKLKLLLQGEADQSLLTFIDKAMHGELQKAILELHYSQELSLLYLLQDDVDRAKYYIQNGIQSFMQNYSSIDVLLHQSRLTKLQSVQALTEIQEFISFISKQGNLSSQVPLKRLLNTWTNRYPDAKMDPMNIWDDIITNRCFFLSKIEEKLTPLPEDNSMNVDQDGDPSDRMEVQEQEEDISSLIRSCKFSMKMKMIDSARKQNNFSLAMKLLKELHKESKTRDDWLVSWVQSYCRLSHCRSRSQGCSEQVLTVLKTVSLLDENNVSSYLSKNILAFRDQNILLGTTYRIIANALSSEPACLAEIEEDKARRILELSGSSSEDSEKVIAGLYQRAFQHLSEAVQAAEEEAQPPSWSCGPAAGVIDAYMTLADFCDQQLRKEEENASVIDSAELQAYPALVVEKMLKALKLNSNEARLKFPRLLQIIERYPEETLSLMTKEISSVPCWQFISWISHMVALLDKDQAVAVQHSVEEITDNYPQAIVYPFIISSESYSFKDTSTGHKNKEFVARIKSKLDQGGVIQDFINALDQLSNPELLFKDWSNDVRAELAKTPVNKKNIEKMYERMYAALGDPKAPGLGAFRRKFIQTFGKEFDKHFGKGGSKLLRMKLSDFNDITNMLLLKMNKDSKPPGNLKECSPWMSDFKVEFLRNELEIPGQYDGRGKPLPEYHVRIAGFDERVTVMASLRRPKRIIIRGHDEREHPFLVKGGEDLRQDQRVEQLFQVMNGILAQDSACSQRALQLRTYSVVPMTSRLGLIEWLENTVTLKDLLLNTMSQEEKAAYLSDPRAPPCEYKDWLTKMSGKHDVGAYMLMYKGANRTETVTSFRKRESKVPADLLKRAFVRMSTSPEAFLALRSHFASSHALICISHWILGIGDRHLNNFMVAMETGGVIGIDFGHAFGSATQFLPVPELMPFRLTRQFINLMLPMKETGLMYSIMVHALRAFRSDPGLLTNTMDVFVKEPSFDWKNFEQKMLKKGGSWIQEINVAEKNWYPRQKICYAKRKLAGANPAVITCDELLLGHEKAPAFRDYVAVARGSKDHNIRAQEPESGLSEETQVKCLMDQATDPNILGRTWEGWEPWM
UniProt Q7Z3U7: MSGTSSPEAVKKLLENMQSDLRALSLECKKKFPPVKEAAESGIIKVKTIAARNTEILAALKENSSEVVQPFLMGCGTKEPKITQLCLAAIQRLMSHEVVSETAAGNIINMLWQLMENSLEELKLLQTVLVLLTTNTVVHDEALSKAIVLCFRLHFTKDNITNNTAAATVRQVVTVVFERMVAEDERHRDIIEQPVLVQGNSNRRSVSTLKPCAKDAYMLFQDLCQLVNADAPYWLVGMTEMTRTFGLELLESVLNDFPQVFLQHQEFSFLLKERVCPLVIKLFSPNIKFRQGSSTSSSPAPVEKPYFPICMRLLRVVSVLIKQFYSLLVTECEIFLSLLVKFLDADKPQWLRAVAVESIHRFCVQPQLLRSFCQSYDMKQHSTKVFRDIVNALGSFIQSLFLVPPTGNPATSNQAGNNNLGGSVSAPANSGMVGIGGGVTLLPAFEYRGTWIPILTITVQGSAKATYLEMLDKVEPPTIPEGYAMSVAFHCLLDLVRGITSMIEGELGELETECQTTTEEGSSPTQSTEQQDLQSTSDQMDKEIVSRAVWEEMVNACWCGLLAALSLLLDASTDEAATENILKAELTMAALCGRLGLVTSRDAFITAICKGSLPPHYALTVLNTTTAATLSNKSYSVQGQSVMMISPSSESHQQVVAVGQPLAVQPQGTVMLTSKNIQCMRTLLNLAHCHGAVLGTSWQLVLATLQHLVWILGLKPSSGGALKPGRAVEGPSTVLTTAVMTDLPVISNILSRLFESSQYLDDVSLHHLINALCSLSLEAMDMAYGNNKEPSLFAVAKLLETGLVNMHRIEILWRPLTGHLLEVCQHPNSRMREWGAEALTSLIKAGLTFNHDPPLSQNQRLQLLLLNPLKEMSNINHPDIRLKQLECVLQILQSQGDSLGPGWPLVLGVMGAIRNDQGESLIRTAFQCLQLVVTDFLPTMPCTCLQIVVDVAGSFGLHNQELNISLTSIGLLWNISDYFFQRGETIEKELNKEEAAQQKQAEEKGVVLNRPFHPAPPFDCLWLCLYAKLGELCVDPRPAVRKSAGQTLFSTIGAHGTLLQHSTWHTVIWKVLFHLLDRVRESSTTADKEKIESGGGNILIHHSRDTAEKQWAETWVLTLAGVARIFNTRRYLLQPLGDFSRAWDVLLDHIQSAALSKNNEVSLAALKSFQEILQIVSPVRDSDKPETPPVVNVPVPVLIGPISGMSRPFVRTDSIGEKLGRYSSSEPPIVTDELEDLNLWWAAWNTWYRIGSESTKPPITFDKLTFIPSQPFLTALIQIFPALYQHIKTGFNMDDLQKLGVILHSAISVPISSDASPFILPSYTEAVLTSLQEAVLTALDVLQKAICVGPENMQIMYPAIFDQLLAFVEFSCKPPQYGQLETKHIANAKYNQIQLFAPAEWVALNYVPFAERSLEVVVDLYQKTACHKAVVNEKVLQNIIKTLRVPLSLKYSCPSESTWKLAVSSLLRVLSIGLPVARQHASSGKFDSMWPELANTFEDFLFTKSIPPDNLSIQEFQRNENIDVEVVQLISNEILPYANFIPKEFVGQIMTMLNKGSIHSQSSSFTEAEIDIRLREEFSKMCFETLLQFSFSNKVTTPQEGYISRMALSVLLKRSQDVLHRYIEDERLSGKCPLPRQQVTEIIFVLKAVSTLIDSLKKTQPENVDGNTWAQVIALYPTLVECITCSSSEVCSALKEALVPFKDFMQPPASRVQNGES

This test concerns the target T1, Strep-TER (trans-2-enoyl-CoA reductase with an N-terminal Strep-tag) (human) (UniProt Q9NZ01).
T1 sequence: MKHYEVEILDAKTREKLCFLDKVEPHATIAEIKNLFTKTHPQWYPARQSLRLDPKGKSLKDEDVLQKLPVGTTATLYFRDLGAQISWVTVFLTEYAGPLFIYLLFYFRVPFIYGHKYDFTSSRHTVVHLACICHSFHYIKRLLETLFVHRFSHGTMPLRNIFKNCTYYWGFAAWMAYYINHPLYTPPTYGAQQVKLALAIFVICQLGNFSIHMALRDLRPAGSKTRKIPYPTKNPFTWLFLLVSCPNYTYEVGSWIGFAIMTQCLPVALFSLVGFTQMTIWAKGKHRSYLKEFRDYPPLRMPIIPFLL
Kind of test: affinity purification with mass spectrometry; Triton X-100 extracts of Strep-TER-expressing or parental HEK293 cells applied to Strep-Tactin Sepharose, buffer A (20 mM Tris HCl pH 8.0, 150 mM NaCl, 1 mM DTT, 2 mM MgCl2, 1 mM CaCl2) with 1% Triton X-100; eluted with desthiobiotin; silver-stained bands cut out, LC-MS/MS.

These are yes or no findings as the source states them, for the method shown. In cells and extracts the contact can be indirect. These calls come from enrichment with a bait or labelling near it, and not all partners need be listed. Where a sequence is shown, tags or fusion partners need not be part of it.

Take “sarco(endo)plasmic reticulum Ca2+-ATPase 2b (SERCA2b), endogenous (from UniProt P16615-1 1-1042) (enzyme)”: the binding entry was “binds”.

On to “nuclear pore complex protein Nup205 (from UniProt Q92621 1-2012)”, for which the binding entry was “binds”.

On to “DNA-dependent protein kinase catalytic subunit (from UniProt P78527 1-4128) (enzyme)”, for which the binding entry is on record as “binds”.

“protein MON2 homologue (from UniProt Q7Z3U7 1-1717)”: the binding result is given as “binds”.

As for “β-tubulin (human (endogenous in HEK293))”, the binding result is recorded as “binds”.
